Experimental data taken from article PMC9051543.
These are yes or no findings as the source states them, for the method shown. Binding calls can cover weak binding; strength is not graded here.

Target: BD-MdCNR8 (full-length MdCNR8 in pGBT9) (apple)
Assay: two-hybrid; pairwise Y2H; baits in pGBT9 (BD), preys in pGAD424 (AD); Gold yeast strain; growth on SD (-T/-L/-H/-A) and SD (-T/-L/-H/-A) with X-gal

binding: binds
B1: AtSCE1 (full-length, in pGAD424) (enzyme, UniProt Q42551 1-160)
chain: MASGIARGRLAEERKSWRKNHPHGFVAKPETGQDGTVNLMVWHCTIPGKAGTDWEGGFFPLTMHFSEDYPSKPPKCKFPQGFFHPNVYPSGTVCLSILNEDYGWRPAITVKQILVGIQDLLDTPNPADPAQTDGYHLFCQDPVEYKKRVKLQSKQYPALV
